Reference: article PMC4872748, “NG2 proteoglycan as a pericyte target for anticancer therapy by tumor vessel infarction with retargeted tissue factor” (Oncotarget, 2016)
These are yes or no findings as the source states them, for the method shown. Some results given as binding are weak or reduced against the parent protein; the word gives no strength.

Protein sequences, listed by entry. Tags and fused reporters are not part of them. Residues count along the entry.
UniProt Q6UVK1, residues 30-2322: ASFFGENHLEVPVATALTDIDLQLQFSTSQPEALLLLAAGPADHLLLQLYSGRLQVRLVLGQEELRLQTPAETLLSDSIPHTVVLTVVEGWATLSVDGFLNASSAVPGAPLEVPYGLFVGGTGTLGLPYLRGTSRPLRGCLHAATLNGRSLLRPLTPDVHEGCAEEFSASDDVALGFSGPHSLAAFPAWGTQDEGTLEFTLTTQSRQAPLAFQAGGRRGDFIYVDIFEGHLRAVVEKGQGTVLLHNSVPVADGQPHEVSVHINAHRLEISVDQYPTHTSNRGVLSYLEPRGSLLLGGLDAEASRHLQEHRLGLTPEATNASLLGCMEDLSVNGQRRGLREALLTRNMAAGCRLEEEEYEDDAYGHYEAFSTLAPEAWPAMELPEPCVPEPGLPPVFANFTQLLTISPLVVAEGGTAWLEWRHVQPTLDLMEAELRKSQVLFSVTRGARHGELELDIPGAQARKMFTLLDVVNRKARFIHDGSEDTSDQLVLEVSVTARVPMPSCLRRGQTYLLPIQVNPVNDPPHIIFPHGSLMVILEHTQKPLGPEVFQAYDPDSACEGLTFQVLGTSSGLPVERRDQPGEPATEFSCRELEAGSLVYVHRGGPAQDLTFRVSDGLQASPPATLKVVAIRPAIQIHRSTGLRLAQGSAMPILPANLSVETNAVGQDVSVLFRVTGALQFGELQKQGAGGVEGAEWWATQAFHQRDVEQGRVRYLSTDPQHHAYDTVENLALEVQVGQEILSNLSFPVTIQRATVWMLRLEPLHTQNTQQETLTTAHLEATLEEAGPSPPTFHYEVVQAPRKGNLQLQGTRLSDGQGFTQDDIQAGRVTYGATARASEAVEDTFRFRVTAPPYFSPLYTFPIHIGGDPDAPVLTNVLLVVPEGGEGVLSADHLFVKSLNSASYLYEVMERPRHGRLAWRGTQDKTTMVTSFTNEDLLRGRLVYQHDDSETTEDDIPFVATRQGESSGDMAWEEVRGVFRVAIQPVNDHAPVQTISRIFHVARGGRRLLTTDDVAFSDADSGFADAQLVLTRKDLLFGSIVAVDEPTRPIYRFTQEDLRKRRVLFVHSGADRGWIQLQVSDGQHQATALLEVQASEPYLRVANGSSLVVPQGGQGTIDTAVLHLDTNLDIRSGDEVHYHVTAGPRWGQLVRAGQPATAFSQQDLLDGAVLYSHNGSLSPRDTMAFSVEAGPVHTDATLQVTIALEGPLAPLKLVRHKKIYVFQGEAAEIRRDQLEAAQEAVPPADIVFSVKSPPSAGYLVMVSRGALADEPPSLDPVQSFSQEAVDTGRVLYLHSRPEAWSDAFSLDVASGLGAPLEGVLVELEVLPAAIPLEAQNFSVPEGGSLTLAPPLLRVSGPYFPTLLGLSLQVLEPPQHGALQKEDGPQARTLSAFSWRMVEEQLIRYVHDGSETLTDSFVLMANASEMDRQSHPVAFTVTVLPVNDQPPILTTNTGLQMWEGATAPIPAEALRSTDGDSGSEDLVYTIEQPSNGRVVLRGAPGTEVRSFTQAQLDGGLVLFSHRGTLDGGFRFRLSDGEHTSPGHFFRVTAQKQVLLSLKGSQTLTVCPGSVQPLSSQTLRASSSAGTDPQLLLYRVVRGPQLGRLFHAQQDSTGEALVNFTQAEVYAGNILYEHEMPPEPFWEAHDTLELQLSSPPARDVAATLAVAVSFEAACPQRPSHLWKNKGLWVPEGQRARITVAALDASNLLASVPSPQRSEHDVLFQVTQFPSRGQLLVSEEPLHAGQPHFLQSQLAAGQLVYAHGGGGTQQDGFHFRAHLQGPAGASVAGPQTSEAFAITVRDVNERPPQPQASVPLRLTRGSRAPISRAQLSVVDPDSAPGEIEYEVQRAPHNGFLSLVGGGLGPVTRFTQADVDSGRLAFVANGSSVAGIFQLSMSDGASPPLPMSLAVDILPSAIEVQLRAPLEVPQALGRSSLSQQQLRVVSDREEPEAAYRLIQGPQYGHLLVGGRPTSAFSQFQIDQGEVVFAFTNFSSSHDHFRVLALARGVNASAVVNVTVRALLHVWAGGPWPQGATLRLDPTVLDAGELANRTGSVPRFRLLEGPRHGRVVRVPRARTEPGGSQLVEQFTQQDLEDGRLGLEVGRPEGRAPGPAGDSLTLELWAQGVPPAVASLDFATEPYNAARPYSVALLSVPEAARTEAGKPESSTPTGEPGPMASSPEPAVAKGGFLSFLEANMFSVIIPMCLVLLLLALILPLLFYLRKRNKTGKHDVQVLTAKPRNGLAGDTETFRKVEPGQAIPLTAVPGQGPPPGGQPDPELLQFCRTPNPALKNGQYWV

Legend:
[1] = biological target: NG2 (nerve/glial antigen 2) proteoglycan (human (endogenous in HuAoSMC and G361)) (UniProt Q6UVK1); assay: flow cytometry on cells; HuAoSMC pre-incubated with 20-fold excess of …-decapeptide for 16 min at 37 C, then tTF-TAA; detection with anti-His-FITC antibody; only the binder purified
[2] = biological target: NG2 (nerve/glial antigen 2) proteoglycan (human (endogenous in HuAoSMC and G361)) (UniProt Q6UVK1); assay: flow cytometry on cells; G361-melanoma cells pre-incubated with 4- to 20-fold excess (200-1000 uM) of …-decapeptide for 16 min at 37 C, then tTF-TAA; detection with anti-His-FITC antibody; only the binder purified

Binder: TAASGVRSMH […-decapeptide]
- binding [1]: binds
- binding [2]: binds
